Legend:
[1] = system: mice with OVA-induced allergic asthma; assay: Circulating leukocyte cell counts (Experimental Groups II); format: in vivo; conditions: i.n.; FB all tested doses (0.3, 1.0, 3.0 nmol/animal); B and F 3 nmol/animal
Protocol: (§1) Male Balb/c SPF mice (25*2 g, 6-week-old) were purchased from the animal house facilities at the São Paulo School of Medicine (Federal University of São Paulo, Brazil). They were group-housed in a temperature-controlled room at 22° C. with a 12/12-hour light/dark cycle and allowed free access to food and water. The study is in agreement with the Ethical Principles for Animal Research established by the Brazilian College for Animal Experimentation (COBEA). According to the internal laboratory rules, euthanasia is performed if severe distress related to the test agents developed during the experiment. […] The compounds were dissolved in DMSO (Sigma Chemical Co., St. Louis, MO) at concentrations at which the determined dose per animal results from the intraperitoneal administration of 100 μl of solution (1:10 DMSO) and intra-nasal (i.n.) administration of 10 μl/animal (5 μl/nostril) of the solutions. Mice were sensitized with two subcutaneous injections of 0.4 ml of OVA/Al(OH)3, with an interval of 7 days (Sham animals received the Al(OH)3 suspension in PBS with no OVA). […] Total cell counts were determined using a Neubauer chamber, and differential counting was carried out in cytospin (Fanem Mod 2400; São Paulo, Brazil) preparations stained with May-Grünwald dye. […]

[2] = system: mice with OVA-induced allergic asthma; assay: BAL fluid cell counts (Experimental Groups II); format: in vivo; conditions: i.n.; all treatments: FB 0.3, 1.0, 3.0 nmol/animal; F and B 3.0 nmol/animal
Protocol: as §1

With `COc1ccc(CC(C)NCC(O)c2ccc(O)c(NC=O)c2)cc1` (centres unmarked) [F, N-[2-hydroxy-5-[1-hydroxy-2-[[2-(p-methoxyphenyl)-2-propy]-amino]-ethyl]-phenyl]-formamide, reference compound] the circulating macrophages [1] was “devoid of any effect” and the “eosinophils in BAL samples” value [2] was “significantly controlled”.

— patent US12465614B2, “Budesonide 21-phosphate salts and pharmaceutical compositions containing the same” (GENETIC S.P.A., priority 2020, dated 2025)
